Source: PubChem BioAssay AID1053208 (Peter MacCallum Cancer Centre, 2014)

- Test: 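Synthetic lethal interactions between gene loss and doxorubicin in osteosarcoma cells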 (primary screen)
- Cell system: mouse osteosarcoma cells, early-passage culture from an engineered mouse model of fibroblastic bone tumour
- Knock-down reagent: siRNA pool against mouse genes, 40 nM
- Duration: about 120 h (48 h before drug, then 72 h with drug)
- Conditions: doxorubicin 100 nM for 72 h, roughly 30-40% inhibitory dose
- Measured: 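Luminescent ATP signal taken as viability with or without 100 nM doxorubicin for 72 h; mean of two wells set against non-targeting siRNA and turned into robust z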
- Direction: viability z-score with doxorubicin: higher = more viable cells under doxorubicin; viability z-score without drug: higher = more viable cells with knock-down alone
- Rule for the call: 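Called active if knock-down leaves viability unchanged without drug (z within -2 to 2) but lowers it with doxorubicin (z at or under -2)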
The deposit covers about 17,000 reagents; this is a part drawn at random. In the full data, 788 (4.7%) were called active. 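Calls rest on z-score classes alone; an extra cut-off of viability at most 70% of control was not applied to them.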 Not all columns of the deposit are shown.

Spag4 (sperm associated antigen 4) scored combined z-score class no change with or without drug; viability z-score with doxorubicin 0.45; viability z-score without drug -0.51; inactive.
Depletion of Rarres2 (retinoic acid receptor responder (tazarotene induced) 2) gave: combined z-score class no change with or without drug; viability z-score with doxorubicin 0.45; viability z-score without drug 0.84; inactive.
Depletion of Ppic (peptidylprolyl isomerase C) gave: combined z-score class no change with or without drug; viability z-score with doxorubicin 0.56; viability z-score without drug -1.18; inactive.
For Wnt4 (WNT family member 4), the values are combined z-score class no change with or without drug; viability z-score with doxorubicin 0; viability z-score without drug 0.51; inactive.
For Cfap184 (cilia and flagella associated protein 184), the entry reads combined z-score class no change with or without drug; viability z-score with doxorubicin 0.34; viability z-score without drug 0.51; inactive.
For St6galnac6, the values are combined z-score class no change with or without drug; viability z-score with doxorubicin 0; viability z-score without drug 0.17; inactive.
For Krt75 (keratin 75) the deposit lists combined z-score class no change with or without drug; viability z-score with doxorubicin 0; viability z-score without drug 0; inactive.

Quoted from above (2 entries):
Spag4 (sperm associated antigen 4) | combined z-score class: no change with or without drug; viability z-score with doxorubicin: 0.45; viability z-score without drug: -0.51; Call: inactive
Rarres2 (retinoic acid receptor responder (tazarotene induced) 2) | combined z-score class: no change with or without drug; viability z-score with doxorubicin: 0.45; viability z-score without drug: 0.84; Call: inactive

Continued.
For Kif23 (kinesin family member 23) the deposit lists combined z-score class no change with or without drug; viability z-score with doxorubicin 1.01; viability z-score without drug -0.51; inactive.
For AI467606 (expressed sequence AI467606) the deposit lists combined z-score class no change with or without drug; viability z-score with doxorubicin 0; viability z-score without drug 0.17; inactive.
Against Stimate (STIM activating enhancer) the deposit lists combined z-score class no change with or without drug; viability z-score with doxorubicin -0.22; viability z-score without drug -0.84; inactive.
For Cplx4 (complexin 4) the deposit lists combined z-score class no change with or without drug; viability z-score with doxorubicin 0.22; viability z-score without drug 1.35; inactive.
Against Or7g22 (olfactory receptor family 7 subfamily G member 22) the deposit lists combined z-score class low cell count with doxorubicin only; viability z-score with doxorubicin -2.36; viability z-score without drug -0.17; active.
